Laboratory results: patent publication US20080254024A1 (Genentech, published 2008)
Results are given in words; binding and its absence hold for the method and conditions named. Some results given as binding are weak or reduced against the parent protein; the word gives no strength. For some assays here: Tags and fused reporters may be left off the sequences shown.

Tests used:
[1] = molecular target: T1, polyhis-tagged human EphB2 (baculovirus-derived His8-tagged EphB2 receptor) (human) (UniProt P29323); assay: direct ELISA on coated EphB2
T1 sequence (looked up): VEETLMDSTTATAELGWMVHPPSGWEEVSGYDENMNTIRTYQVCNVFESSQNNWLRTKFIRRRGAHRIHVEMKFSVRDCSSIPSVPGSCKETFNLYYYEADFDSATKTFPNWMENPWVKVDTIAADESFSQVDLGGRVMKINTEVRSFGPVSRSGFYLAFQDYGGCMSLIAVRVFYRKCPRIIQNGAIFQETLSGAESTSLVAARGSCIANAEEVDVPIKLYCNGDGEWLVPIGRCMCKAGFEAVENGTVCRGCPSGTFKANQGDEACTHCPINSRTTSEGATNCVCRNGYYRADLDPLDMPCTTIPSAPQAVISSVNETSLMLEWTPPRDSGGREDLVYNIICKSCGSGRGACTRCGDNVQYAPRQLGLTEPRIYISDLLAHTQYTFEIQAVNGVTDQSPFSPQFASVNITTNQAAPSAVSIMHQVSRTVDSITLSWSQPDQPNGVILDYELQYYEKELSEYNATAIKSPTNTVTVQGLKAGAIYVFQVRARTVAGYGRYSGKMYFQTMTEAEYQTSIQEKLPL

[2] = molecular target: T2, mouse EphB2 polypeptide (mouse) (UniProt P54763); assay: direct ELISA on coated EphB2
T2 sequence (looked up): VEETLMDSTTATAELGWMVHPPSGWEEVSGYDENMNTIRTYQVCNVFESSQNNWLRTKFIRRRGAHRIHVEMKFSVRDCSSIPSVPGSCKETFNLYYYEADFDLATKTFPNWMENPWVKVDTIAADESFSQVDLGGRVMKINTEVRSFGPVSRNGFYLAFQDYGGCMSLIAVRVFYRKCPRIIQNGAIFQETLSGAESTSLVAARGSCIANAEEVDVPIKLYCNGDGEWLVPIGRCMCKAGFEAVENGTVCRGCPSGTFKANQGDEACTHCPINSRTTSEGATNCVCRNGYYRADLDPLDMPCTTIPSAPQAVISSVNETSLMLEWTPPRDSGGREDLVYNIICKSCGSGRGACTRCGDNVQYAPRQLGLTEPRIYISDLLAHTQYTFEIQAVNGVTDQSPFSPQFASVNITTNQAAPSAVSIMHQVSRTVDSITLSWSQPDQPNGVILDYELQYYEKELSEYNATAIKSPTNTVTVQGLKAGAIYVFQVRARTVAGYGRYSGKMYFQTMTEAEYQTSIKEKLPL

[3] = molecular target: T3, EphB2 ligand binding domain construct ss.EphB2LBD.gD.GPI (amino acids 19 to 208 of human EphB2) on transiently transfected 293 cells (human) (UniProt P29323); assay: FACS on ss.EphB2LBD.gD.GPI-293 cells
T3 sequence (chain, COOH-terminal GPI linker): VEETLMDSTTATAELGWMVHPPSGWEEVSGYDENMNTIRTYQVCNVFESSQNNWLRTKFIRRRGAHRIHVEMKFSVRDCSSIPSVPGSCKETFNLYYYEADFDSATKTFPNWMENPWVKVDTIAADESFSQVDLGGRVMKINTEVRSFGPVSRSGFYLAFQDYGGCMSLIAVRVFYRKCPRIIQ

[4] = molecular target: endogenous human EphB2 on cells or tissue (HT1080-GD vector control cells, colorectal cancer cell lines, colon adenocarcinoma sections) (human) (UniProt P29323); assay: reactivity against colorectal cancer cell lines that endogenously express EphB2
[5] = molecular target: NH2-terminal GD epitope-tagged human EphB2 overexpressed on cells (HT1080-EphB2, SVT2-EphB2) (human) (UniProt P29323); assay: reactivity against cell lines engineered to overexpress the receptor (HT-1080EphB2 and SVT2EphB2)
[6] = molecular target: NH2-terminal GD epitope-tagged human EphB2 overexpressed on cells (HT1080-EphB2, SVT2-EphB2) (human) (UniProt P29323); assay: flow cytometry on HT1080-EphB2 cells
[7] = molecular target: NH2-terminal GD epitope-tagged human EphB2 overexpressed on cells (HT1080-EphB2, SVT2-EphB2) (human) (UniProt P29323); assay: saturation binding on HT1080-EphB2 cells, HRP-conjugated secondary antibody, absorbance at 450 nm
[8] = molecular target: T3, EphB2 ligand binding domain construct ss.EphB2LBD.gD.GPI (amino acids 19 to 208 of human EphB2) on transiently transfected 293 cells (human); assay: FACS on ss.EphB2LBD.gD.GPI-293 cells, Mab 2H9 at 1 µg/ml
[9] = molecular target: NH2-terminal GD epitope-tagged human EphB2 overexpressed on cells (HT1080-EphB2, SVT2-EphB2) (human) (UniProt P29323); assay: immunofluorescence and 125I-antibody uptake on HT1080-EphB2 cells
[10] = molecular target: endogenous human EphB2 on cells or tissue (HT1080-GD vector control cells, colorectal cancer cell lines, colon adenocarcinoma sections) (human) (UniProt P29323); assay: immunohistochemistry on frozen human colon adenocarcinoma sections
[11] = molecular target: endogenous human EphB2 on cells or tissue (HT1080-GD vector control cells, colorectal cancer cell lines, colon adenocarcinoma sections) (human) (UniProt P29323); assay: flow cytometry on HT1080-GD cells
[12] = molecular target: endogenous human EphB2 on cells or tissue (HT1080-GD vector control cells, colorectal cancer cell lines, colon adenocarcinoma sections) (human) (UniProt P29323); assay: saturation binding on HT1080-GD cells, HRP-conjugated secondary antibody, absorbance at 450 nm
[13] = molecular target: NH2-terminal GD epitope-tagged human EphB2 overexpressed on cells (HT1080-EphB2, SVT2-EphB2) (human) (UniProt P29323); assay: immunofluorescence of HT1080-EphB2 cells incubated with MAb 2H9 on ice, kept on ice or shifted to 37°C for 1 h, fixed and stained with secondary antibody
[14] = molecular target: NH2-terminal GD epitope-tagged human EphB2 overexpressed on cells (HT1080-EphB2, SVT2-EphB2) (human) (UniProt P29323); assay: flow cytometry competition on HT1080 cells overexpressing EphB2; blocked ligand Fc-EphrinB1, detected with FITC-anti-huFc; incubations on ice

Measured: binding

B1: anti-EphB2 monoclonal antibody produced by hybridoma cell line 2H9.11.14 (ATCC PTA-6606) (antibody, IgG1, V domains shown)
VH: QVQLQQSGAELAKPGASVKMSCKASGYTFTSYWMHWVKQRPGQGLEWIGFINPSTGYTDYNQKFKDKATLTVKSSNTAYMQLSRLTSEDSAVYYCTRRLKLLRYAMDYWGQGTTLTVSA
VL: DIVMTQSPSSLSVSAGEKVTMNCKSSQSLLNSGNQENYLAWYQQKPGQPPKLLIYGASTRESGVPDRFTGSGSGTDFTLTISSVQAEDLAVYYCQNDHSYPFTFGAGTKVEIKR
notes: 125I-labelled in the Scatchard and uptake assays; also called Mab 2H9; MAb 2H9
binds: all assays above
